From patent US20130172273A1 (GENETADI BIOTECH, S.L., priority 2010, published 2013)

Assay: general procedure: solution-phase peptide synthesis; HATU/KHCO3; HATU/HOAT/KHCO3 for cyclisation
[1] = late stage modification step, trifluoroacetate salt

Substance “Cbz-Asp(O^tBu)-(beta-Lactam)-Arq(Pbf)-OBn” has a step yield (coupling step) of 75%.

With cyclo-[Asp-(beta-Lactam)-Arg the step yield [1] was 85%.

For cyclo-[Asp-(beta-Lactam)-Arq, the step yield [1] was 78%.
